The subject of the data set is CAN1 locus. The data set can be described thus: Mutation spectra at the CAN1 locus. It counts as cell-based, yeast. Particulars: for Frequency of frameshifts among CAN1 mutations / Frequency of substitutions among CAN1 mutations / Frequency of deletions among CAN1 mutations: events/sequenced Can^r clones; for Frequency of deletions among CAN1 mutations: 67 bp deletion in pol30-Pol32E5, 16 bp in pol30-Rad27E6; for Frequency (%) of deletions among CAN1 mutations / Frequency (%) of frameshifts among CAN1 mutations / Frequency (%) of substitutions among CAN1 mutations: value in parentheses.

The mark [1] stands for this setting: frameshift, events/total as printed.
The mark [2] stands for this setting: substitution, events/total as printed.

B1: pol30-Rad27E6: PCNA mutant evolved for Rad27, IDCL sequence DGDYDILKIREL (protein)
chain: MLEAKFEEASLFKRIIDGFKDCVQLVNFQCKEDGIIAQAVDDSRVLLVSLEIGVEAFQEYRCDHPVTLGMDLTSLSKILRCGNNTDTLTLIADNTPDSIILLFEDTKKDRIAEYSLKLMDGDYDILKIRELQYDSTLSLPSSEFSKIVRDLSQLSDSINIMITKETIKFVADGDIGSGSVIIKPFVDMEHPETSIKLEMDQPVDLTFGAKYLLDIIKGSSLSDRVGIRLSSEAPALFQFDLKSGFLQFFLAPKFNDEE
modifications: left off: Gal4 activation domain, end not stated, kept
For the molecule B1, the “Frequency of frameshifts among CAN1 mutations” value is 11/26, the “Frequency of substitutions among CAN1 mutations” value is 14/26, the “Frequency of deletions among CAN1 mutations” value is reported as 1/26 and the “Frequency (%) of deletions among CAN1 mutations” value stood at 4%. Also, the “Frequency (%) of frameshifts among CAN1 mutations” value is reported as 42% and the “Frequency (%) of substitutions among CAN1 mutations” value was 54%. Also, under setting [1], the “Frequency of CAN1 mutation A1→A0” value was 1/11, the “Frequency of CAN1 mutation A5→A6” value is recorded as 1/11, the “Frequency of CAN1 mutation G1→G0” value is 1/11 and the “Frequency of CAN1 mutation G1→G2” value is reported as 1/11. Also, under setting [1], the “Frequency of CAN1 mutation G2→G3” value is on record as 1/11, the “Frequency of CAN1 mutation T1→T0” value is 1/11, the “Frequency of CAN1 mutation T2→T1” value is reported as 1/11 and the “Frequency of CAN1 mutation T3→T2” value is 1/11. For the same molecule, under setting [1], the “Frequency of CAN1 mutation T3→T4” value was 1/11. Moreover, under setting [2], the “Frequency of CAN1 mutation A→C” value was 1/14, the “Frequency of CAN1 mutation C→A” value is 5/14, the “Frequency of CAN1 mutation C→G” value is given as 3/14 and the “Frequency of CAN1 mutation G→A” value was 1/14. Besides, under setting [2], the “Frequency of CAN1 mutation G→C” value was 2/14 and the “Frequency of CAN1 mutation T→G” value was 2/14.

B2: pol30-Pol32E5: PCNA mutant evolved for Pol32, IDCL sequence DADNDFLKISEL (protein)
chain: MLEAKFEEASLFKRIIDGFKDCVQLVNFQCKEDGIIAQAVDDSRVLLVSLEIGVEAFQEYRCDHPVTLGMDLTSLSKILRCGNNTDTLTLIADNTPDSIILLFEDTKKDRIAEYSLKLMDADNDFLKISELQYDSTLSLPSSEFSKIVRDLSQLSDSINIMITKETIKFVADGDIGSGSVIIKPFVDMEHPETSIKLEMDQPVDLTFGAKYLLDIIKGSSLSDRVGIRLSSEAPALFQFDLKSGFLQFFLAPKFNDEE
modifications: left off: Gal4 activation domain, end not stated, kept
In the case of B2, the “Frequency of frameshifts among CAN1 mutations” value is on record as 9/37, the “Frequency of substitutions among CAN1 mutations” value is recorded as 21/37, the “Frequency of deletions among CAN1 mutations” value is recorded as 7/37 and the “Frequency (%) of deletions among CAN1 mutations” value is on record as 19%. Besides, the “Frequency (%) of frameshifts among CAN1 mutations” value is reported as 24% and the “Frequency (%) of substitutions among CAN1 mutations” value is 57%. For the same molecule, under setting [1], the “Frequency of CAN1 mutation A2→A3” value is 1/37, the “Frequency of CAN1 mutation C1→C0” value is given as 1/37, the “Frequency of CAN1 mutation G1→G0” value is reported as 1/37 and the “Frequency of CAN1 mutation G1→G2” value is 1/37. Also, under setting [1], the “Frequency of CAN1 mutation G2→G3” value is 1/37, the “Frequency of CAN1 mutation T2→T3” value is on record as 1/37, the “Frequency of CAN1 mutation T3→T4” value is 1/37 and the “Frequency of CAN1 mutation T5→T4” value is reported as 1/37. Besides, the “Frequency of CAN1 mutation T6→T5” value under setting [1] is listed as 1/37. Moreover, under setting [2], the “Frequency of CAN1 mutation C→A” value is 1/37, the “Frequency of CAN1 mutation C→G” value is 2/37, the “Frequency of CAN1 mutation G→A” value is 9/37 and the “Frequency of CAN1 mutation G→C” value is given as 2/37. Under setting [2], the “Frequency of CAN1 mutation G→T” value is listed as 5/37 and the “Frequency of CAN1 mutation T→G” value is given as 2/37.

(Values after PMC2953525, “Subtle Alterations in PCNA-Partner Interactions Severely Impair DNA Replication and Repair” (PLoS Biology, 2010).)
